About 3,700 (7%) of roughly 53,000 sequences were called active.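 Rule for the calls: active = gene knockdowns whose robust z-score for IL-1 alpha signal is at least 2 or at most -2, so actives lie on both sides; inactive = the rest.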 The list shows a part of the results.
Assay: Components of the Cytosolic LPS Sensing Pathway: Gene Identification via Genome-wide siRNA Screen;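 note: robust z of the log signal after scaling to non-targeting control siRNA wells of the plate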
Conditions: RAW264.7 macrophages, IL-1a HTRF, actives lie on both sides, screened at 100 nM (by protocol), cells primed 5 h with Pam3CSK4 first
Method in brief: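 Using IL-1a HTRF as read-out, the screen measured release from RAW264.7 cells after 48h siRNA knockdown (100 nM), 5 h Pam3CSK4 priming and 24 h cytosolic LipidA. Values were expressed relative to negative-control wells as robust z-scores.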
For GCAAAGUUACACAUCAAAGTT against Agtr1a, the z-score was inactive: 1.02.
In the case of GGCAGAGAUUAAGAACUGUTT against Adgre5, the z-score is reported as inactive: 0.243.
With CUAGUAGGGUCAGAAUUUUTT against Olfr329 the z-score was inactive: -0.0244.
With CCUCUUAGAUCAGGAUUAUTT against Usp37 the z-score was inactive: 0.991.
For GGAUGAAUGGAAUUUACUGTT against Fbh1, the z-score was inactive: 0.406.
For GGAAAGCACAUCCUCUUUGTT against Gpx6, the z-score was inactive: 1.02.
For GCCACGCAAUAAAGCAUCUTT against Sars, the z-score was inactive: -0.284.
In the case of GCACCAAAAUACACGAAAGTT against Ptpdc1, the z-score is reported as inactive: -1.11.
For GUUCCGACUGAACUUGUAUTT against Psmb3, the z-score was active: -2.55.
With GGUUGUAAUAGCCUUAGCCTT against Rassf8 the z-score was active: -2.87.
For GGUGUGUGACUUUUUUUGUTT against Ube2d1, the z-score was inactive: 0.329.
In the case of GGAUGUCAUUAAACCUAAGTT against Rbm34, the z-score is reported as inactive: -1.12.
For GAGCAUCUCAAGGAUCUUCTT against Syngr4, the z-score was inactive: 0.661.
In the case of CCAUGACAAAUUCAAGCAGTT against Atf1, the z-score is reported as inactive: 0.254.
In the case of GGCUAUUAAAGAUACAGCGTT against Sfxn4, the z-score is reported as inactive: 0.162.
In the case of AUGCUUUUUGGAGCCAUAUTT against Olfr307, the z-score is reported as active: 3.07.
With CGUGGUGAUAUUGGAUUAATT against Myef2 the z-score was inactive: -0.0288.
In the case of GCCAAACAUGGAGAGAGCATT against Hid1, the z-score is reported as inactive: -0.319.
For GGACCCUGACAUCAUUGUGTT against Plekhh3, the z-score was inactive: 0.237.
For CAGCAUGAUGAUGGAGACCTT against Sox1, the z-score was inactive: 0.708.
With CCAUCAUUGCUCGUAUUGGTT against Olfr656 the z-score was active: -2.9.
With CCUUAGAUUCACUCAGCACTT against Dbpht2 the z-score was inactive: -0.492.
In the case of GCAUGAGAAGAUUUAUAGGTT against Stac, the z-score is reported as inactive: 0.397.
With GGAUCAGUGACUGAUCUUGTT against Myo3a the z-score was inactive: 0.279.
In the case of GGAGAGAUGGUAUUGUUGGTT against Olfr1298, the z-score is reported as inactive: -0.0094.
With CCUAUUAUCUACCUUACAATT against Enpp5 the z-score was inactive: 1.13.
With GGACAAGAAUAAGUACAACTT against Rpl5 the z-score was inactive: -0.918.
With “GCUCCCAUUAUCAUUCAAATT against D3Ertd751e” the z-score was inactive: 1.67.
For GGAGAAGUGAUUAAAAUCATT against Themis, the z-score was inactive: 0.535.
For GGUUACAGCUUUAAGGUAATT against Ercc3, the z-score was inactive: -0.817.
For CCUGGAAUCUGUCCCUCAUTT against Olfr262, the z-score was inactive: -0.161.
For CGCCAUGUUUAACAAAUUGTT against Limk2, the z-score was active: -2.22.
For GGCUCUGUUCUCCACAUUGTT against Phf5a, the z-score was inactive: -1.6.
For GGACCUUCGGAAUGACGAGTT against Rhoa, the z-score was inactive: 1.02.
For CGAGGACUCAAUAGUAGCCTT against Proser3, the z-score was inactive: -0.678.
With GCAUACCGGAUAAACUGAATT against Apoc1 the z-score was inactive: -0.916.
For GGAGCCCUAUACAGGGUUUTT against Trarg1, the z-score was inactive: 0.353.
In the case of GGCAGAAGAUUGCUUCAGATT against Pm20d2, the z-score is reported as inactive: -0.229.
For GGUCCUCCAAUGGAACAAGTT against Rhd, the z-score was inactive: -0.0946.
With GGUCCACCUUCUUACUUUATT against Emc7 the z-score was inactive: 0.578.
With GCAGCUAAAACAAGUUUGATT against Sntg2 the z-score was inactive: -0.565.
In the case of GGUGACAAGGAGAAAGAUGTT against Rnf151, the z-score is reported as inactive: -1.58.
In the case of GGUAGAAGAAUGCAUAAUGTT against Sema3e, the z-score is reported as inactive: 0.82.
For GGAUUCUGAAGAAAACGGGTT against Ibsp, the z-score was inactive: 0.195.
With GGGCCUAUGUGCUUUAUAUTT against Usp8 the z-score was inactive: -0.0584.
For GGAGCACUUUAAGUUAUACTT against Rnf225, the z-score was inactive: 1.73.
In the case of GCAAGAACGCAAGAUUCAATT against Acoxl, the z-score is reported as inactive: 0.581.
In the case of GGAAAGACAGAAUAAUCCATT against Sparc, the z-score is reported as inactive: 1.03.
With CCAAACAGAGCCAUUCUAATT against Hykk the z-score was inactive: 0.916.
For CGUAUUGGUGGGAGAAAGATT against Parva, the z-score was inactive: -0.105.
For CCCUAAGUCCGUUAAUGUUTT against Wdhd1, the z-score was inactive: 0.0708.
With “CCUAAACUACAGGAAUUUATT against D830014E11Rik” the z-score was inactive: -0.0293.
In the case of GGAAUUCUCUUAGUCCCUCTT against Vmn1r32, the z-score is reported as inactive: -0.603.
With GCCUUCUUCUACCAUAGCATT against Thyn1 the z-score was inactive: -1.64.
In the case of GGGACCAGAACAAAUACAATT against Klc3, the z-score is reported as active: 4.06.
For GGUUCUACCUCAAGAUGUUTT against Srd5a2, the z-score was inactive: 0.0188.
In the case of GGCGUGAUAGCUGGACUUATT against Eola1, the z-score is reported as inactive: 0.439.
In the case of GGCCCACAGGAACAUCCUATT against Zbtb8b, the z-score is reported as inactive: -0.134.
In the case of CCAUUCGAUACCUCGUGCATT against Dhps, the z-score is reported as inactive: -0.249.
In the case of GGUGAAUGCUUGUCUGCACTT against Sapcd1, the z-score is reported as inactive: -0.624.
In the case of GGAUCUUGGAUAAAGUGUGTT against Gpr180, the z-score is reported as inactive: 1.73.
With CCCACAGUUCUGAAGGGAGTT against Olfr1215 the z-score was inactive: -0.518.
In the case of CGAUUUUCCUCAAUAUCUCTT against Pcdhgc4, the z-score is reported as inactive: -0.246.
In the case of GGAAUUCUUCAGGUGGAUATT against Ginm1, the z-score is reported as inactive: 0.128.
With CGAAGACGUAAUUACGAAATT against Pla2g4d the z-score was inactive: -0.781.
In the case of GGAGGAACAUAUGCUCAGATT against Lce1e, the z-score is reported as active: -2.99.
With GGACAUGGUACCACAGGAGTT against Tenm4 the z-score was inactive: 0.643.
In the case of GGUUCUUUUGAGCUUUAUGTT against Oscp1, the z-score is reported as inactive: 0.263.
In the case of GGCUAAUAGACUUAUUAGGTT against Cdip1, the z-score is reported as inactive: 0.45.
In the case of CCAAUGAUGAAUCCCUUCATT against Olfr781, the z-score is reported as inactive: 0.294.
For GGACUUCUAGAGAAGAAGCTT against Gpn2, the z-score was inactive: 0.0803.
For CGCCCAUCUACGUUUUUACTT against Neil1, the z-score was inactive: 0.638.
With GCUCAUUCCAGCAGUAAUGTT against Taf6 the z-score was inactive: -1.26.
In the case of “GGCAAUAGAAACUUUUGGUTT against Vmn1r-ps103”, the z-score is reported as inactive: -0.0332.
With GGAGGCUUCUAUUGCCAUATT against Olfr380 the z-score was inactive: -0.572.
For GCGGUCACACCAAAAGUCATT against Olfr1466, the z-score was inactive: -1.56.
In the case of GCGAACCAAACUUGCAUAUTT against Znrf2, the z-score is reported as inactive: 1.19.
With GGUACAAAUGCAUUGAGAGTT against Fcamr the z-score was inactive: -1.3.
In the case of GGUGCAUUUUGUCUAUGAUTT against Lamp5, the z-score is reported as active: -2.04.
For CCAAGUGCUCAGCUAAACUTT against Zscan4c, the z-score was inactive: -1.11.
In the case of GGAGUUCAAGUAUACGUGUTT against Clic3, the z-score is reported as inactive: -0.0472.
For GGUUCCAUUCUUGUCACCCTT against Lifr, the z-score was inactive: -1.53.
For “GGCAUCGAUGAACUCUACUTT against A730013G03Rik”, the z-score was inactive: 0.772.
For GCUACUCAUUUAGCAGAGATT against Olfr76, the z-score was inactive: -0.887.
In the case of GGCAUUGACUAUGAGAUAGTT against Gstz1, the z-score is reported as inactive: -0.914.
In the case of GGAUCCGUAUUCAGAUUUATT against Nrk, the z-score is reported as inactive: 0.941.
With GCCUUUGCGUUAUGCUACUTT against Olfr610 the z-score was inactive: -0.321.
In the case of CGUUUUCACAUUCGGUGGATT against Alpl, the z-score is reported as inactive: 0.466.
In the case of “CGGUGAAAAACCUAUGUAUTT against 1700028P14Rik”, the z-score is reported as inactive: 0.115.
In the case of GGGAAAGUCGAGCUUUUUCTT against Ifi44l, the z-score is reported as inactive: 0.0658.
For GUGCUAUUCAUGCACAGCATT against Psca, the z-score was inactive: 0.0658.
With GGUUUGAGCAACUAACUAATT against Lhx2 the z-score was inactive: -0.0483.
In the case of GGAUCAAAUGUGGCAUAUUTT against Rassf5, the z-score is reported as inactive: 0.597.
In the case of CCAAUGAGAGUUCUAUGAUTT against Cxxc4, the z-score is reported as inactive: -0.192.
With GCGGACUGUUUUGAUACAUTT against Mtpap the z-score was inactive: 0.519.
In the case of GGGAAAAACACUUCUCACUTT against Slc35e2, the z-score is reported as inactive: -0.238.
In the case of GGACUGAACUAACAGGAAGTT against Klrb1f, the z-score is reported as inactive: 0.415.
For GGAGGUUAACAGCUGCCAATT against Rnaset2b, the z-score was inactive: -0.223.
For “GGCCCUUACAGAGUCUGGATT against B930095G15Rik”, the z-score was inactive: 0.833.
In the case of GGACUUCUUCAGAAACAGCTT against Gtf2a1l, the z-score is reported as inactive: 0.273.
In the case of GGCAUCAUACUGAUUGGUGTT against Suclg1, the z-score is reported as inactive: -0.496.
With GGUCCUCAUUUAUUGAAAUTT against Cdkn1b the z-score was inactive: -0.241.
With GGCUUCCUGAUGGAUUUAUTT against Stk11ip the z-score was inactive: 1.02.
For GCAGCCUCAACAACAACCCTT against Rnf145, the z-score was inactive: 0.0473.
For GGCACUGCAUAUUUGGUAUTT against Dmrtc2, the z-score was inactive: 0.478.
With GGUAAUCAGUAGUGACUUATT against Mkln1 the z-score was inactive: 0.229.
